The values below come from PubChem BioAssay AID2685 (National Center for Advancing Translational Sciences (NCATS), 2010).

A short description of the assay: qHTS Assay for Lipid Storage Modulators in Drosophila S3 Cells.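 On cell number change: cells counted by Cell Tracker Red CMTPX staining in the red channel.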 To be noted: BODIPY lipid droplet fluorescence, 18-24 h; for cell number change: measured here: cell count max response, cells fed with added oleic acid. The procedure, abridged:
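Laser-scanning cytometry quantifies lipid droplet accumulation (500–530 nm total intensity; droplet/cell object ratio) in oleic acid-fed (400 uM added) Drosophila S3 cells treated with a concentration series. 20 uM Triacsin C defined 100% inhibition.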
Background: Quantitative high-throughput screening tests each substance at several concentrations.

Where [1] appears, read: measured here: cell number channel AC50, cells fed with added oleic acid.
Setting [2] is: measured here: lipid fluorescence (Fed channel) AC50, cells fed with added oleic acid.

The list shows a part of the results. Further columns of the screen follow, without active or inactive calls. The list favours compounds with an active or inconclusive main result. The note in brackets gives the kind of curve behind each potency; many fits are weak.

As a reminder, the AC50 is the midpoint of the concentration-response curve, whichever way the signal moves. As to `COc1ccccc1C(=O)NNC(=O)C(=O)NCc1ccccc1`, the cell number change was -40.1%. Also, the AC50 under setting [1] is 29.1 µM [falling, single point]. Moreover, the concentration at half-maximal activity (AC50) under setting [2] was 18.4 µM [falling, single point].
Regarding `Fc1cccc(Cl)c1/C=N/Nc1c(Cl)cncc1Cl`, the cell number change was determined as 2.7%. Also, the AC50 under setting [2] is 0.82 µM [falling, single point].
Consider `O=C(Nc1cc(S(=O)(=O)N2CCCCCC2)ccc1OCC(F)(F)F)c1cnccn1`, for which the cell number change was 25.5%. Besides, under setting [2], the AC50 was 20.6 µM [rising, partial curve, poor fit].
`CC(NC(=O)CCN1C(=O)c2ccccc2C1=O)c1ccccc1` (stereo unspecified): the cell number change was determined as 12.6%. Moreover, under setting [2], the half-maximal activity concentration (AC50) was 6.51 µM [falling, single point].
On to `O=C(c1cccs1)N1CCCC(c2nc(-c3ccc(F)cc3)no2)C1` (stereo unspecified), for which the cell number change was determined as 20.1%. The half-maximal activity concentration (AC50) under setting [2] was 14.6 µM [rising, partial curve].
With `CCCCc1cc(=O)oc2cc(OCC(=O)Nc3ccccn3)ccc12`, the cell number change was determined as 1.13%. Also, under setting [1], the AC50 is 3.66 µM [falling, single point]. Under setting [2], the AC50 is 5.17 µM [falling, partial curve].
With `Cc1ccc(/C=C/C(=O)N2CCCC(C(N)=O)C2)o1` (stereo unspecified), the cell number change is -23.8%. Moreover, the half-maximal activity concentration (AC50) under setting [2] is 16.4 µM [falling, single point].
Take `CC(/C=N/NC(=O)c1cc(-c2ccccc2)nc2ccccc12)=C\c1ccco1`: the cell number change is -0.997%. In addition, the concentration at half-maximal activity (AC50) under setting [2] was 3.66 µM [rising, single point].
Take `CC(C)C1N(S(=O)(=O)c2ccccc2)CCN1S(=O)(=O)c1ccccc1`: under setting [1], the half-maximal activity concentration (AC50) is 0.651 µM [falling, full curve, poor fit].
Turning to `C=CCSCC1Nc2cc(Cl)c(S(N)(=O)=O)cc2S(=O)(=O)N1` (stereo unspecified), the half-maximal activity concentration (AC50) under setting [2] was 25.9 µM [rising, single point].
For the compound `O=C(Nc1ccccc1)c1ccccc1CSc1ccccc1`, the cell number change was -16.5%. Besides, under setting [2], the AC50 is 0.651 µM [falling, full curve, poor fit].
Turning to `O=C(N/N=C/C(Br)=C/c1ccccc1)C(O)c1ccccc1` (stereo unspecified), the cell number change was -46.8%. Under setting [1], the AC50 is 20.6 µM [falling, partial curve, poor fit]. Besides, the AC50 under setting [2] was 11.6 µM [falling, partial curve].
`Cc1nn(-c2nc(-c3ccco3)cc(C(F)(F)F)n2)c(C)c1Cl`: the cell number change was determined as 12.4%. For the same compound, under setting [2], the half-maximal activity concentration (AC50) is 11.6 µM [rising, partial curve, poor fit].
On to `Cc1ccc(-c2noc(C3CCCN(C(=O)c4c(F)cccc4F)C3)n2)cc1` (stereo unspecified), for which the cell number change is -17.7%. The half-maximal activity concentration (AC50) under setting [1] was 0.103 µM [falling, full curve, poor fit]. For the same compound, the concentration at half-maximal activity (AC50) under setting [2] is 25.9 µM [falling, single point].
In the case of `COCCOC(=O)C1=C(C)OC(N)=C(C#N)C1c1cc2cccc(C)c2nc1Cl` (stereo unspecified), the cell number change was found to be 1.55%.
Regarding `COc1cccc(/C=N/NC(=O)Cn2cnc3c2c(=O)n(C)c(=O)n3C)c1`, the cell number change was 24.3%. Moreover, the AC50 under setting [2] is 20.6 µM [rising, partial curve].
As to `COCC(C)NS(=O)(=O)c1ccc(C)cc1` (stereo unspecified), the cell number change is -93.5%. Besides, the half-maximal activity concentration (AC50) under setting [1] was 23.1 µM [falling, partial curve].
For `COc1ccc(S(=O)(=O)N(CCCN2CCOCC2)Cc2cccc(OC)c2OC)cc1`, the cell number change is -11.9%. Besides, under setting [2], the AC50 was 9.2 µM [rising, partial curve, poor fit].
`Cc1ccc(C(=O)NCC(=O)NCCCc2ccccc2)cc1`: the half-maximal activity concentration (AC50) under setting [2] was 0.231 µM [rising, full curve, poor fit].
Regarding `O=C(CSc1nc(-c2ccc(F)cc2)nc2c1Cc1ccccc1O2)Nc1cccc(C(=O)O)c1`, the cell number change was -16.3%. Moreover, under setting [1], the AC50 is 0.00461 µM [rising, full curve, poor fit]. Also, under setting [2], the AC50 is 0.00461 µM [rising, full curve, poor fit].
Regarding `CCOC(=O)C1=C(C(F)(F)F)Nc2ncnn2C1c1cc(OC)ccc1OC` (stereo unspecified), the cell number change was determined as 21.9%. Also, the concentration at half-maximal activity (AC50) under setting [2] was 5.8 µM [rising, full curve].
Take `O/N=C/c1cn(-c2ccccc2)nc1-c1ccccc1`: the cell number change was -46.6%. Further, the AC50 under setting [1] is 18.4 µM [falling, single point]. Moreover, under setting [2], the concentration at half-maximal activity (AC50) is 29.1 µM [falling, single point].
On to `COc1ccc(NC(=O)CCSc2ccc(C)cc2)cc1S(=O)(=O)Nc1ccccc1Cl`, for which the cell number change was -4.53%. In addition, under setting [2], the AC50 is 0.00517 µM [rising, full curve, poor fit].
`O=c1cnnc(Nc2ccc(Cl)c(C(F)(F)F)c2)[nH]1`: the cell number change was 7.23%. For the same compound, the AC50 under setting [2] was 5.8 µM [falling, single point].
With `COc1ccc(C2NC(=O)NC(O)(C(F)(F)F)C2C(=O)c2ccc(F)cc2)cc1` (stereo unspecified), the cell number change was -35.4%. Further, under setting [1], the AC50 is 5.17 µM [falling, partial curve]. The AC50 under setting [2] is 23.1 µM [falling, partial curve].
Consider `Cc1cc2nn(-c3ccccc3)nc2cc1NC(=O)c1cccs1`, for which the cell number change was -2.64%. The AC50 under setting [1] was 1.64 µM [rising, partial curve]. Besides, under setting [2], the half-maximal activity concentration (AC50) is 1.3 µM [rising, full curve].
`CCOC(=O)c1c(C)[nH]c(C)c1C(=O)CN1C(=O)NC2(CCCCCC2)C1=O`: the cell number change is -24.8%. Also, the AC50 under setting [2] was 29.1 µM [falling, single point].
On to `CC(=O)c1ccc(S(=O)(=O)NCCCC(=O)N(C)Cc2ccc3c(c2)OCO3)cc1`, for which the cell number change is 5.99%. The AC50 under setting [1] is 0.82 µM [falling, full curve, poor fit]. For the same compound, the AC50 under setting [2] is 0.92 µM [falling, full curve, poor fit].
With `COCCN1C(=O)C(=O)/C(=C(/O)c2ccc(S(=O)(=O)N3CCCCC3)cc2)C1c1ccc(O)c(OC)c1` (stereo unspecified), the cell number change was -1.22%. Besides, the AC50 under setting [2] is 29.1 µM [rising, single point].
In the case of `COc1ccc(NC(=O)Cn2c(C)csc2=O)c(OC)c1`, the cell number change worked out at 3.16%. For the same compound, under setting [2], the AC50 is 14.6 µM [rising, partial curve].
In the case of `COc1ccc(N2CCN(c3ccc(N4C(=O)CC(C)C4=O)cc3[N+](=O)[O-])CC2)cc1` (stereo unspecified), the cell number change is -16.3%. Also, under setting [1], the half-maximal activity concentration (AC50) was 0.517 µM [rising, full curve, poor fit]. Under setting [2], the AC50 was 29.1 µM [falling, single point].
For `Cc1ccc2c(CN(C)Cc3cccc(F)c3)cc(=O)oc2c1C`, the cell number change was 25.7%. Also, the half-maximal activity concentration (AC50) under setting [2] is 2.31 µM [rising, single point].
Consider `O=C(OCc1nc2ccsc2c(=O)[nH]1)c1ccco1`, for which the half-maximal activity concentration (AC50) by setting is: under setting [1], 0.13 µM [falling, full curve, poor fit]; under setting [2], 0.13 µM [falling, partial curve, poor fit].
With `Cn1c(=NC(=O)COc2ccccc2)sc2cccc(F)c21`, the cell number change was determined as 20.3%. Moreover, under setting [2], the concentration at half-maximal activity (AC50) was 1.64 µM [rising, full curve].
Consider `CCOc1ccccc1Nc1ncnc2ccc(Br)cc12`, for which the cell number change was -2.36%.
As to `COC(=O)[C@H](C)NC(=O)Nc1ccc(OC)c(OC)c1`, the cell number change turned out to be 11.3%. In addition, the concentration at half-maximal activity (AC50) under setting [2] is 20.6 µM [falling, single point].
Turning to `O=C(N/N=C/c1cn(Cc2cccc(F)c2)c2ccccc12)c1cc(O)cc(O)c1`, the cell number change is -37.6%. Also, the AC50 under setting [1] is 29.1 µM [falling, single point].
Regarding `CCOC(=O)N1CCC(N2Cc3cccc(C(=O)NCc4ccc(OC)cc4)c3C2=O)CC1`, the cell number change amounted to 34%. For the same compound, the AC50 under setting [1] was 10.3 µM [rising, partial curve]. Besides, the AC50 under setting [2] is 10.3 µM [rising, partial curve].
Take `C=CCn1c(SCc2c(C)noc2C)nc2ccccc2c1=O`: the cell number change was determined as 49.2%. In addition, the AC50 under setting [1] was 1.84 µM [rising, partial curve]. Moreover, the half-maximal activity concentration (AC50) under setting [2] is 0.58 µM [rising, single point].
`Cc1cccc(NC(=O)[C@H](C)NC(=O)[C@@H]2Cc3ccccc3CN2C(=O)OC(C)(C)C)c1`: the cell number change is 2.64%. The AC50 under setting [2] is 23.1 µM [falling, partial curve].
`CCCCN(C)C(=O)c1cn(CC)c2ccc(S(=O)(=O)N(C)C)cc2c1=O`: the cell number change is -31%. In addition, the AC50 under setting [1] is 8.2 µM [falling, partial curve].
`CCOC(=O)Cn1ccc(NC(=O)c2ccc(F)cc2)n1`: the cell number change came out at 10.8%. Under setting [1], the concentration at half-maximal activity (AC50) is 3.66 µM [rising, partial curve, poor fit]. Further, the half-maximal activity concentration (AC50) under setting [2] was 6.51 µM [rising, single point].
Consider `O=C(CCN1C(=O)/C(=C/c2ccccc2)SC1=S)N1CCCCCC1`, for which the cell number change came out at 3.95%.
Regarding `Cc1ccc(S(=O)(=O)NC2CC(C)(C)NC(C)(C)C2)cc1C`, the cell number change worked out at 25.6%. The AC50 under setting [2] was 29.1 µM [rising, single point].
Regarding `CC1(C)C(=O)Nc2ccccc2N1C(=O)COC(=O)c1cc(S(C)(=O)=O)ccc1Cl`, the cell number change is -10.5%. Moreover, the half-maximal activity concentration (AC50) under setting [2] is 0.58 µM [rising, single point].
Turning to `O=C(Nc1ccc(Cn2cccn2)cc1)c1ccc(COc2ccccc2Br)cc1`, the cell number change is -12.8%. Further, under setting [2], the half-maximal activity concentration (AC50) was 1.84 µM [falling, partial curve].
Turning to `O=c1nc(N/N=C/c2c[nH]c3ccccc23)cn[nH]1`, the cell number change is -48.4%. Also, under setting [1], the half-maximal activity concentration (AC50) was 4.61 µM [falling, full curve, poor fit]. In addition, the concentration at half-maximal activity (AC50) under setting [2] was 0.116 µM [falling, full curve].
With `COc1ccc(Nc2nc(-c3ccccc3)nc3ccccc23)c(OC)c1`, the cell number change came out at 62.8%. Moreover, under setting [1], the AC50 was 29.1 µM [rising, single point]. In addition, the AC50 under setting [2] was 0.116 µM [rising, full curve, poor fit].
Turning to `O=C(CSc1nnc(CNC(=O)C23CC4CC(CC(C4)C2)C3)n1-c1ccc(F)cc1)Nc1ccc(F)cc1`, the cell number change was -31.3%. The AC50 under setting [1] is 20.6 µM [falling, single point]. Besides, the AC50 under setting [2] is 29.1 µM [falling, single point].
For `O=C(Nc1ccc(C(=O)N2CCN(c3ccc(Cl)cc3)CC2)cc1)C1=CSCCO1`, the cell number change was 63.7%. Also, the concentration at half-maximal activity (AC50) under setting [1] was 8.2 µM [rising, partial curve]. For the same compound, under setting [2], the AC50 is 5.8 µM [rising, single point].
In the case of `CN(C)S(=O)(=O)c1ccc(C(=O)NCCN2C(=O)S/C(=C\c3cccnc3)C2=O)cc1`, the cell number change is -7.38%.
Take `COc1ccc(NC(=O)CSc2nnnn2-c2ccccc2OC)c(OC)c1`: the cell number change is -7.21%. The AC50 under setting [2] is 0.116 µM [falling, full curve, poor fit].
As for `COc1ccc(S(=O)(=O)CCC(=O)NCCc2ccc(S(N)(=O)=O)cc2)cc1`, the cell number change is -6.69%. Besides, the AC50 under setting [2] is 20.6 µM [falling, single point].
